Source: US12024715B2, “Compositions and methods for improved T cells” (Temple University-Of The Commonwealth System of Higher …, priority 2017, dated 2024)

Tested on: Ezh2
Test: RNAseq analysis of activated Ezh2−/− versus WT CD8 T cells (anti-CD3/CD28 Abs and IL-2, 3 days)
Format: cell-based, mouse

Substance: Ccl4
- Activated Ezh2−/− CD8 (RNAseq expression value of the listed gene in activated Ezh2−/− CD8 T cells): 619.718
- Activated WT CD8 (RNAseq expression value of the listed gene in activated WT CD8 T cells): 258.104
- fold change (gene expression, activated Ezh2−/− CD8 T cells versus WT CD8 T cells): 2.401
